For some assays here: For at least one compound, name, drawing or mass did not settle the structure. Some results were stated once for a whole list of compounds, not compound by compound.
Key:
[1] = test system: parasitic forms of Trypanosoma cruzi; experiment: Formation of autophagic vacuoles (MDC labeling); type: cell-based; conditions: parasites pretreated with 500 nM WTM
[2] = people treated for Chagas disease; cited from earlier work

Compound	effect of pretreatment on autophagic vacuole induction by the vitamin combination [1]	people with temporary side effects (skin disorders, brain toxicity, digestive system irritation) [2]
COC[C@H]1OC(=O)c2coc3c2[C@@]1(C)C1=C(C3=O)[C@@H]2CCC(=O)[C@@]2(C)C[C@H]1OC(C)=O [WTM, wortmannin]	partially prevented	
O=C(Cn1ccnc1[N+](=O)[O-])NCc1ccccc1 [benznidazole]		up to 40%

Reference: US11998523B2, “Ascorbic acid and quinone compounds for treating Chagas disease” (IC-MedTech Corp., priority 2016, dated 2024)
